Measurements from PubChem BioAssay AID2417 (National Center for Advancing Translational Sciences (NCATS), 2010).
In all, about 140,000 compounds went through this assay and about 4,300 (3.1%) were called active. The inconclusive results got no clear call from the source; some entries with a clear call stand among them for comparison.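 Rule for the calls: active = readout at or below -70, meaning at least 70% loss of cells showing the perinucleolar compartment, a nuclear body marking cancer cells; inconclusive = readout between -30 and a set limit; inactive = the rest.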

Assay: High Content Assay for Compounds that inhibit the Assembly of the Perinucleolar Compartment;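 note: plate controls were DMSO wells for no effect and camptothecin positive control wells for full effect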
Details: PC3M PTB-GFP, PNC prevalence imaging, 16 h; at 10 µM; stronger effect = lower value
In short: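 Read-out is percentage of cells bearing a perinucleolar compartment, from automated 20x imaging of fixed, Hoechst-stained PC3M PTB-GFP cells. Cells were seeded 4 h, then exposed 16 h to compound (23 nl of library stock) in duplicate plates.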

Structure (SMILES) | activity change (PNC), negative = inhibition
CCOc1ccccc1Nc1nc(-c2sc(NC(=O)c3ccc([N+](=O)[O-])cc3)nc2C)cs1 | inactive: -24.1%
Cc1ccc(OCc2n[nH]c(=S)n2C2CCCCC2)cc1 | inactive: 39.6%
O=C(Nc1nnc(C(F)(F)F)s1)C1COc2ccccc2O1 (stereo not given) | inconclusive: -38.5%
Cc1ccc(Cn2c(SCC(=O)N3CC(=O)Nc4ccccc43)nc3ccccc3c2=O)cc1 | inactive: -27.9%
Cc1ccc(OCCCCNC(C)(C)C)c([N+](=O)[O-])c1 | inactive: -24.6%
CC1CCCN(C(=O)C2CCN(CC(C)c3ccccc3)CC2)C1 (stereo not given) | inactive: 11.7%
CN(CC(O)CON=C1c2ccccc2-c2ccccc21)S(=O)(=O)c1ccc(Br)cc1 (stereo not given) | inactive: -23.2%
Cc1ccc(NC(=O)CN(C)C(=O)Cn2cc(C(F)(F)F)cc(Cl)c2=O)cc1 | inconclusive: -40.7%
COC(=O)CNC(=O)CNC(=O)Nc1ccccc1Cl | inconclusive: -73.1%
COC(=O)c1cc2c(s1)-c1ccccc1OC2 | inconclusive: -48.7%
COc1ccccc1NC(=O)Cn1cnc2c(cnn2-c2ccc(C)c(C)c2)c1=O | inconclusive: -53.1%
O=C(CNc1cccc2ccccc12)N/N=C/c1ccc([N+](=O)[O-])cc1 | inconclusive: -41.6%
CCCCOc1cccc(C(=O)Nc2ccc(N3CCN(CC)CC3)cc2)c1 | inconclusive: -34.5%
O=C(Nc1cccnc1)c1c(F)cccc1F | inconclusive: -43.4%
O=C(CN1N=C(C(F)(F)F)CC1(O)c1ccc([N+](=O)[O-])cc1)c1ccccc1 (stereo not given) | inconclusive: -31.3%
O=[N+]([O-])c1ccc(-n2nnnc2-c2ccccc2)c([N+](=O)[O-])c1 | inactive: -15.3%
COc1ccc(NC(=O)C(NC(=O)c2ccc(=O)[nH]c2)c2ccccc2)cc1 (stereo not given) | inconclusive: -71.1%
O=C(Cc1cccs1)NNC(=S)NC(=O)c1ccccc1 | inactive: -8.86%
COc1ccc2nc(NC(=O)c3cccc(OCc4c(C)noc4C)c3)sc2c1 | active: -90.6%
COc1ccc(-n2c(-c3ccc(Br)cc3)nc(=S)c3c2CCCC3)cc1 | inconclusive: -54.5%
CCOc1nnc(C)c2c(C)n(-c3cccc(OC)c3)nc12 | active: -106%
CCc1ccc(NC(=O)c2cc(C(C)C)on2)cc1 | inactive: 10.9%
CCc1c(C)sc(NC(=O)CC#N)c1C#N | inactive: 9.05%
COc1ccc(-c2nc(NC(=O)CSc3nnc(C)s3)ns2)cc1 | inconclusive: -49.3%
CCOC(=O)N1CCN(C(=O)CSCc2ccccc2Cl)CC1 | inactive: 46.5%

As entered above:
In activity change (PNC), negative = inhibition, O=C(Cc1cccs1)NNC(=S)NC(=O)c1ccccc1 has inactive: -8.86%
In activity change (PNC), negative = inhibition, O=C(CNc1cccc2ccccc12)N/N=C/c1ccc([N+](=O)[O-])cc1 has inconclusive: -41.6%
